These are yes or no findings as the source states them, for the method shown. Some results given as binding are weak or reduced against the parent protein; the word gives no strength. Tags and fused reporters may be left off the sequences shown.
How the values were obtained:
[1] = target: T1, human Psf3 with a cleavable N-terminal histidine tag (human) (UniProt Q9BRX5); experiment: SEC; hGINS subunits co-expressed in E. coli and co-purified by Ni-affinity (His tag on Psf3), heparin and size-exclusion chromatography; subunits co-eluted up to 500 mM NaCl plus 500 mM imidazole, pH 6.0-8.0; tetramer peak fraction run again minutes or days after elution; both purified
T1 sequence: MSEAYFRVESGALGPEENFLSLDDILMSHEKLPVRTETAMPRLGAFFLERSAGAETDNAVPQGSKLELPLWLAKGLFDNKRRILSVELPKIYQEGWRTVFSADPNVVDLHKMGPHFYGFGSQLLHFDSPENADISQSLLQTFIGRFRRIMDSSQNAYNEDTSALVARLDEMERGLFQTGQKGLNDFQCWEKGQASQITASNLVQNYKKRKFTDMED

By UniProt entry, the sequences of proteins in these tests, tags left out.
UniProt Q9BRT9: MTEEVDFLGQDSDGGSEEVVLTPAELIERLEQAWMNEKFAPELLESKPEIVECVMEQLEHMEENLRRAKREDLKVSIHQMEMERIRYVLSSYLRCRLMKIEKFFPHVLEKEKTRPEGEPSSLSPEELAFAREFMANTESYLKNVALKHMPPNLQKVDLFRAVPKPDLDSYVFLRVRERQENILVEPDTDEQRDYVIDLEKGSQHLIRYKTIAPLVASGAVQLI

[2] = target: T1, human Psf3 with a cleavable N-terminal histidine tag (human); experiment: SAXS; Elettra SAXS beamline; full length hGINS at 1-4 mg/ml and hGINS-ΔB at 0.67-5 mg/ml; purified co-expressed complexes; both purified
[3] = target: T1, human Psf3 with a cleavable N-terminal histidine tag (human); experiment: SEC-MALS; 100 uL of 5 and 10 mg/mL hGINS on a Superdex 200 column coupled with differential refractive index detection; both purified

Molecule: human Sld5 (from UniProt Q9BRT9 1-223)
- binding [1]: binds
- binding [2]: binds
- binding [3]: binds

B1: human Psf1 (protein, UniProt Q14691 1-196)
chain: MFCEKAMELIRELHRAPEGQLPAFNEDGLRQVLEEMKALYEQNQSDVNEAKSGGRSDLIPTIKFRHCSLLRNRRCTVAYLYDRLLRIRALRWEYGSVLPNALRFHMAAEEMEWFNNYKRSLATYMRSLGGDEGLDITQDMKPPKSLYIEVRCLKDYGEFEVDDGTSVLLKKNSQHFLPRWKCEQLIRQGVLEHILS
- binding [1]: binds
- binding [2]: binds
- binding [3]: binds

B2: human Psf2 (protein, UniProt Q9Y248 1-185)
chain: MDAAEVEFLAEKELVTIIPNFSLDKIYLIGGDLGPFNPGLPVEVPLWLAINLKQRQKCRLLPPEWMDVEKLEKMRDHERKEETFTPMPSPYYMELTKLLLNHASDNIPKADEIRTLVKDMWDTRIAKLRVSADSFVRQQEAHAKLDNLTLMEINTSGTFLTQALNHMYKLRTNLQPLESTQSQDF
- binding [1]: binds
- binding [2]: binds
- binding [3]: binds

B3: human Psf1 lacking the B domain (Psf1ΔB) (domain or fragment, UniProt Q14691 1-149)
chain: MFCEKAMELIRELHRAPEGQLPAFNEDGLRQVLEEMKALYEQNQSDVNEAKSGGRSDLIPTIKFRHCSLLRNRRCTVAYLYDRLLRIRALRWEYGSVLPNALRFHMAAEEMEWFNNYKRSLATYMRSLGGDEGLDITQDMKPPKSLYIE
- binding [2]: binds

Source: PMC5223209, “New insights into the GINS complex explain the controversy between existing structural models” (Scientific Reports, 2017)
